Data source: PubChem BioAssay AID602196 (INSERM, 2012)

- Test: 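Modifiers of cisplatin sensitivity in A549 cells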
- Cell system: human A549 lung cancer cells
- Reagent: siRNA pair against human genes
- Time to read-out: 48 h transfection before cisplatin; time from cisplatin to read-out not stated
- Challenge: cisplatin at a dose killing half of control-siRNA cells; exact dose and duration not given
- Read-out: 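Shift in cisplatin death relative to control siRNA, from -50 (all cells die) to +50 (no cells die); siRNAs harmful on their own scored 0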
- Scale: two-siRNA summed score (-2 to +2): higher = both siRNAs protect from cisplatin killing; -2 means both sensitise
- Active means: 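siRNAs harmful alone (LDH or WST-1) get 0; others get +1 for less and -1 for more cisplatin killing; genes are active when the two siRNAs give the same sign, summing to ±2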
- Calls: active = both siRNAs shift cisplatin killing the same way; inactive = no consistent shift, or siRNA harmful alone
The deposit covers about 23,000 reagents; this is an unselected part. 455 of them (2%) count as active. 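Active includes both protection and sensitisation; some change values fall well beyond the stated -50 to +50 range.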 Not all columns of the deposit are shown. Reagent sequences are not shown. Not stated in the record: the amount of reagent.

IQGAP2 (GeneID 10788)
- two-siRNA summed score (-2 to +2): 0
- call: inactive

LOC401175
- two-siRNA summed score (-2 to +2): 0
- call: inactive

FBXO27 (GeneID 126433)
- two-siRNA summed score (-2 to +2): 0
- call: inactive

FBRS (GeneID 64319)
- two-siRNA summed score (-2 to +2): 0
- call: inactive

CARTPT (GeneID 9607)
- two-siRNA summed score (-2 to +2): 0
- call: inactive

LOC388284
- two-siRNA summed score (-2 to +2): 2
- call: active

DBT (GeneID 1629)
- two-siRNA summed score (-2 to +2): 0
- call: inactive

PALS2 (GeneID 51678)
- two-siRNA summed score (-2 to +2): -1
- call: inactive

LOC391013
- two-siRNA summed score (-2 to +2): 0
- call: inactive

ADAMTS12 (GeneID 81792)
- two-siRNA summed score (-2 to +2): 0
- call: inactive

In a second layout: 3 of the entries above.
{"gene": "CARTPT (GeneID 9607)", "two-siRNA summed score (-2 to +2)": 0, "call": "inactive"}
{"gene": "LOC388284", "two-siRNA summed score (-2 to +2)": 2, "call": "active"}
{"gene": "DBT (GeneID 1629)", "two-siRNA summed score (-2 to +2)": 0, "call": "inactive"}

The listing continues.
COMMD7 (GeneID 149951)
- two-siRNA summed score (-2 to +2): 0
- call: inactive

ERN2 (GeneID 10595)
- two-siRNA summed score (-2 to +2): 0
- call: inactive

FOXD4L4 (GeneID 349334)
- two-siRNA summed score (-2 to +2): -1
- call: inactive

ADGB (GeneID 79747)
- two-siRNA summed score (-2 to +2): 0
- call: inactive

DRP2 (GeneID 1821)
- two-siRNA summed score (-2 to +2): 1
- call: inactive

SEC22A (GeneID 26984)
- two-siRNA summed score (-2 to +2): 0
- call: inactive

RERG (GeneID 85004)
- two-siRNA summed score (-2 to +2): 1
- call: inactive

FOXF1 (GeneID 2294)
- two-siRNA summed score (-2 to +2): 0
- call: inactive

IRF8 (GeneID 3394)
- two-siRNA summed score (-2 to +2): 2
- call: active

NEUROG3 (GeneID 50674)
- two-siRNA summed score (-2 to +2): 0
- call: inactive

SNURF (GeneID 8926)
- two-siRNA summed score (-2 to +2): 1
- call: inactive
